Test results: paper PMC9573979
These are yes or no findings as the source states them, for the method shown. Binding seen in cells or lysates may run through a third protein. These calls come from enrichment with a bait or labelling near it, and not all partners need be listed.

Chains of the proteins cited; added tags and fusions are not shown.
UniProt P97496: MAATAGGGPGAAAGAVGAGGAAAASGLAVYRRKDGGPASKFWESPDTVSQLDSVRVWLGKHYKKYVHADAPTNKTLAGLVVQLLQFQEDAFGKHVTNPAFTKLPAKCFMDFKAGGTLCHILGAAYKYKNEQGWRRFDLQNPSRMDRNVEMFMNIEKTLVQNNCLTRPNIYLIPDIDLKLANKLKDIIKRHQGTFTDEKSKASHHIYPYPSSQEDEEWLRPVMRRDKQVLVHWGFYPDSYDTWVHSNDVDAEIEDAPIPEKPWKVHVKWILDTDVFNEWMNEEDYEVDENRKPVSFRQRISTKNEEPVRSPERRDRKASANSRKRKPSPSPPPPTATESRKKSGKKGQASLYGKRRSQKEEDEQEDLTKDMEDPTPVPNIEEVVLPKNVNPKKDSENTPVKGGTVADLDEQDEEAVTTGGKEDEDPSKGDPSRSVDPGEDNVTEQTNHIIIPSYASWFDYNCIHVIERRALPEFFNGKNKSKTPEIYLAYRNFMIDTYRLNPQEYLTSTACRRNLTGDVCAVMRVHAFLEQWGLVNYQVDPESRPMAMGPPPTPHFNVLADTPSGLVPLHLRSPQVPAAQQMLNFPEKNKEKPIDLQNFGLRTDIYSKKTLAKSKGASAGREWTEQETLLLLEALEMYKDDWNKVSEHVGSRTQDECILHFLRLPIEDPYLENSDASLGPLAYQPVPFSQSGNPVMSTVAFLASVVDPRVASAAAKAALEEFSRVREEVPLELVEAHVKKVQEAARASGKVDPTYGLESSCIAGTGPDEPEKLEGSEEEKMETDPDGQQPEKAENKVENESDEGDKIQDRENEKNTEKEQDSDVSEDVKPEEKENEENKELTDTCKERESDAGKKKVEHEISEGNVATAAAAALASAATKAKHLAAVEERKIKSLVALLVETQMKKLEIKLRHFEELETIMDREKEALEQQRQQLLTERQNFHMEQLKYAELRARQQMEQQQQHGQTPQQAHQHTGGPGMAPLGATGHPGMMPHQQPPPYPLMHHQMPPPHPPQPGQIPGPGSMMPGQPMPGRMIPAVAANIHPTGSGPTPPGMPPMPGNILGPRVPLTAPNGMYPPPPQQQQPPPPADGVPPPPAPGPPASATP
UniProt Q6PDG5: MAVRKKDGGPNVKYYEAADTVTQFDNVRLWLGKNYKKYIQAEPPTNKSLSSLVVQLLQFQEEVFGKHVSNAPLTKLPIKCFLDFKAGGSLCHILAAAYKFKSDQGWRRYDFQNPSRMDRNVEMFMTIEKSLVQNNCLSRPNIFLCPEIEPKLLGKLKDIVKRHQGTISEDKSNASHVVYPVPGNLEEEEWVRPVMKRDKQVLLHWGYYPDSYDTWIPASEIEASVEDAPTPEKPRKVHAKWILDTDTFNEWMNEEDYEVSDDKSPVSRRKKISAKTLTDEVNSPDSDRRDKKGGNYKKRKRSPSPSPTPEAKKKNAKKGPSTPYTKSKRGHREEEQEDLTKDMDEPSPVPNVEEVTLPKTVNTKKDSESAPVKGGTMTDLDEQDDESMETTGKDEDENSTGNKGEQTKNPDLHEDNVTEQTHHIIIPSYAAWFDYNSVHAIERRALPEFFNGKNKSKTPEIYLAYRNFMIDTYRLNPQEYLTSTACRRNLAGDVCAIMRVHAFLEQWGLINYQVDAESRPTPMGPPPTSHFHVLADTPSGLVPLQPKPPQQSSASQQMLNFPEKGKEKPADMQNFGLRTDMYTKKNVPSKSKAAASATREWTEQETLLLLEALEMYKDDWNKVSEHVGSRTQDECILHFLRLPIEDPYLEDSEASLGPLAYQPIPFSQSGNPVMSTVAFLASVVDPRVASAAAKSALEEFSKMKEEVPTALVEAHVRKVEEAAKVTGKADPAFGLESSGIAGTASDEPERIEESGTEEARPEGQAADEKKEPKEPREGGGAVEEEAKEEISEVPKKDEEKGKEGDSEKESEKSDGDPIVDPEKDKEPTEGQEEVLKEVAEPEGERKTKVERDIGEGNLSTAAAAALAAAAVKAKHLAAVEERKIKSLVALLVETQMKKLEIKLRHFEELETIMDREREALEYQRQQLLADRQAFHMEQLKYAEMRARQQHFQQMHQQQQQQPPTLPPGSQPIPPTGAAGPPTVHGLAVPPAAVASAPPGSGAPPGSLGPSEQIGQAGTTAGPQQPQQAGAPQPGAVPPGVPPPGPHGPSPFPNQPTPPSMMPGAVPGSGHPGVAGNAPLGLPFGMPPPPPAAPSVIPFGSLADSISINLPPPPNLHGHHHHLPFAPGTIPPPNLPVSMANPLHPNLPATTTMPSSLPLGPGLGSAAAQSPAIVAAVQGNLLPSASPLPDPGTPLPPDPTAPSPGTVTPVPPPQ

Columns and labels:
[1] = target: BAF155 (mouse (endogenous in telencephalic tissue)) (UniProt P97496); assay: affinity purification with mass spectrometry; coIP with antibodies against BAF155 and BAF170 from lysates of E13.5 or E17.5 wild-type mouse telencephalic tissue and of cultured NS-5 neural stem cells, followed by mass spectrometry; IgG coIP/MS as control
[2] = target: BAF170 (mouse (endogenous in telencephalic tissue)) (UniProt Q6PDG5); assay: as above

binding [1]: binds
binding [2]: binds
B1: LHX2 (protein, UniProt Q9Z0S2 1-406)
chain: MLFHSLSGPEVHGVIDEMDRRAKSEAPAISSAIDRGDTETTMPSISSDRAALCAGCGGKISDRYYLLAVDKQWHMRCLKCCECKLNLESELTCFSKDGSIYCKEDYYRRFSVQRCARCHLGISASEMVMRARDLVYHLNCFTCTTCNKMLTTGDHFGMKDSLVYCRLHFEALLQGEYPAHFNHADVAAAAAAAAAAKSAGLGSAGANPLGLPYYNGVGTVQKGRPRKRKSPGPGADLAAYNAALSCNENDAEHLDRDQPYPSSQKTKRMRTSFKHHQLRTMKSYFAINHNPDAKDLKQLAQKTGLTKRVLQVWFQNARAKFRRNLLRQENTGVDKTSDATLQTGTPSGPASELSNASLSPSSTPTTLTDLTSPTLPTVTSVLTSVPGNLEGHEPHSPSQTTLTNLF
